According to paper PMC6051995:
Results are given in words; binding and its absence hold for the method and conditions named. Binding seen in cells or lysates may run through a third protein. These calls come from enrichment with a bait or labelling near it, and not all partners need be listed.

The chains behind the UniProt entries cited, without tags or fusion partners.
UniProt Q15910: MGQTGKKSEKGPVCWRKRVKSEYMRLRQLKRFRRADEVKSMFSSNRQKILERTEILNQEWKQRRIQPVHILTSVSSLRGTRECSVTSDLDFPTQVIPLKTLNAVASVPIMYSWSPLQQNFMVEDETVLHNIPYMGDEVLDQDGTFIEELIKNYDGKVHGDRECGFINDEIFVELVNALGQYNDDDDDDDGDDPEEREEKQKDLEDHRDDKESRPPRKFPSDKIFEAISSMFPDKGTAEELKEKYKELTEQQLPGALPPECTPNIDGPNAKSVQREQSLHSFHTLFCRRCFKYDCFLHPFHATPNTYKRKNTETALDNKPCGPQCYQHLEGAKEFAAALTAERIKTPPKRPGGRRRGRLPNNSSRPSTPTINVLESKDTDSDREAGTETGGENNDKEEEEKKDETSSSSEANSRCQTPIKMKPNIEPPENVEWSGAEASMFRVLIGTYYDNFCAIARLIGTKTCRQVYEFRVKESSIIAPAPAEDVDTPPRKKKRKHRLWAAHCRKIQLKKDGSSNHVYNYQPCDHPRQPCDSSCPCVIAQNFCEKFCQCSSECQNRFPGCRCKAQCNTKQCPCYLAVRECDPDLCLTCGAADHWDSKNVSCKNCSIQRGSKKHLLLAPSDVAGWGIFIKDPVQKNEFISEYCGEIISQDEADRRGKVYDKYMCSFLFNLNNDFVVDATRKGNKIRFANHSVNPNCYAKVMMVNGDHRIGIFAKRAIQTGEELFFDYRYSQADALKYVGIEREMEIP
UniProt Q12929: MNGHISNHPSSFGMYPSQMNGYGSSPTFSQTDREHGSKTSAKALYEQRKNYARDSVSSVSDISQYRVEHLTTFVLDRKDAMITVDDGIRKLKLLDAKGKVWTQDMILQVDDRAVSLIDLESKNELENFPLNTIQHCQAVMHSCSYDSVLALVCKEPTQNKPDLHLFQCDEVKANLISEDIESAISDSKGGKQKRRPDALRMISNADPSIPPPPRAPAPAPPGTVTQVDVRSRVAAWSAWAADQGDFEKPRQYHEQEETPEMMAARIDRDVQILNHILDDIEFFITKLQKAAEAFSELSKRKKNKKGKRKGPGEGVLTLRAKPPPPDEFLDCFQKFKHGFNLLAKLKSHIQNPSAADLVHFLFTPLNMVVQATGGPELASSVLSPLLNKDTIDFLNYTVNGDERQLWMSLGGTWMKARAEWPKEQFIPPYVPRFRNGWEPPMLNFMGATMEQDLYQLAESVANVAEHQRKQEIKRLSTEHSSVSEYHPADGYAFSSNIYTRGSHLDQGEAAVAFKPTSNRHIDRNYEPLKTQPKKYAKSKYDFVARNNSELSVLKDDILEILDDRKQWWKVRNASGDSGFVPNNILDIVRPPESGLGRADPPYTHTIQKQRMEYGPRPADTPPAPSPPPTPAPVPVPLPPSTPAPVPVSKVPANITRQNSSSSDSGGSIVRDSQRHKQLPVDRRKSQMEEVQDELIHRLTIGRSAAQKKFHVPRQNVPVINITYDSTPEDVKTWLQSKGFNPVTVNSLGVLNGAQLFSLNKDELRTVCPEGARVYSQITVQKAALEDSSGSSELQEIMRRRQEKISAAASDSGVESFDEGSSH
UniProt Q9UJU6: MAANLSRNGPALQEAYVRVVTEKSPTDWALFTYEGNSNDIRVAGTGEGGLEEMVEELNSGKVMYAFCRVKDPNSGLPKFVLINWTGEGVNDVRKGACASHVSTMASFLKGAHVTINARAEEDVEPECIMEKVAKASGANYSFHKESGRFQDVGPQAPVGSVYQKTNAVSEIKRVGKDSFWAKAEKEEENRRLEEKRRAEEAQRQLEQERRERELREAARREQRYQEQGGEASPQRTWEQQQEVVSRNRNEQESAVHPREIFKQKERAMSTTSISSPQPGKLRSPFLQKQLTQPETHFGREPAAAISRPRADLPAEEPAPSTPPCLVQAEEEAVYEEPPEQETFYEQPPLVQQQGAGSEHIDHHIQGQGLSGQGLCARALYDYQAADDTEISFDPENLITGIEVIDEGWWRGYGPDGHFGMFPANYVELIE

Biological target: FLAG-EZH2 (wild-type) (UniProt Q15910)
Assay: affinity purification with mass spectrometry; whole cell lysates of MDA-MB-231 knockdown-rescue cells expressing FLAG vector, FLAG-EZH2 or FLAG-T367A; anti-FLAG antibody beads; on-bead digestion, LC-MS/MS; SAINT and FC scoring; three biological replicates

Row | Substance | binding
1 | EPS8 (Epidermal Growth Factor Receptor Pathway Substrate 8) (from UniProt Q12929 1-822) | binds
2 | DBNL (from UniProt Q9UJU6 1-430) | binds
3 | vinculin (endogenous) (from UniProt P18206-2) | binds
4 | SYNE2 (nesprin-2) (from UniProt Q8WXH0 1-6885) | binds
